{"sequences": {"note": "The chains behind the UniProt entries cited, without tags or fusion partners.", "UniProt Q9ESD7": "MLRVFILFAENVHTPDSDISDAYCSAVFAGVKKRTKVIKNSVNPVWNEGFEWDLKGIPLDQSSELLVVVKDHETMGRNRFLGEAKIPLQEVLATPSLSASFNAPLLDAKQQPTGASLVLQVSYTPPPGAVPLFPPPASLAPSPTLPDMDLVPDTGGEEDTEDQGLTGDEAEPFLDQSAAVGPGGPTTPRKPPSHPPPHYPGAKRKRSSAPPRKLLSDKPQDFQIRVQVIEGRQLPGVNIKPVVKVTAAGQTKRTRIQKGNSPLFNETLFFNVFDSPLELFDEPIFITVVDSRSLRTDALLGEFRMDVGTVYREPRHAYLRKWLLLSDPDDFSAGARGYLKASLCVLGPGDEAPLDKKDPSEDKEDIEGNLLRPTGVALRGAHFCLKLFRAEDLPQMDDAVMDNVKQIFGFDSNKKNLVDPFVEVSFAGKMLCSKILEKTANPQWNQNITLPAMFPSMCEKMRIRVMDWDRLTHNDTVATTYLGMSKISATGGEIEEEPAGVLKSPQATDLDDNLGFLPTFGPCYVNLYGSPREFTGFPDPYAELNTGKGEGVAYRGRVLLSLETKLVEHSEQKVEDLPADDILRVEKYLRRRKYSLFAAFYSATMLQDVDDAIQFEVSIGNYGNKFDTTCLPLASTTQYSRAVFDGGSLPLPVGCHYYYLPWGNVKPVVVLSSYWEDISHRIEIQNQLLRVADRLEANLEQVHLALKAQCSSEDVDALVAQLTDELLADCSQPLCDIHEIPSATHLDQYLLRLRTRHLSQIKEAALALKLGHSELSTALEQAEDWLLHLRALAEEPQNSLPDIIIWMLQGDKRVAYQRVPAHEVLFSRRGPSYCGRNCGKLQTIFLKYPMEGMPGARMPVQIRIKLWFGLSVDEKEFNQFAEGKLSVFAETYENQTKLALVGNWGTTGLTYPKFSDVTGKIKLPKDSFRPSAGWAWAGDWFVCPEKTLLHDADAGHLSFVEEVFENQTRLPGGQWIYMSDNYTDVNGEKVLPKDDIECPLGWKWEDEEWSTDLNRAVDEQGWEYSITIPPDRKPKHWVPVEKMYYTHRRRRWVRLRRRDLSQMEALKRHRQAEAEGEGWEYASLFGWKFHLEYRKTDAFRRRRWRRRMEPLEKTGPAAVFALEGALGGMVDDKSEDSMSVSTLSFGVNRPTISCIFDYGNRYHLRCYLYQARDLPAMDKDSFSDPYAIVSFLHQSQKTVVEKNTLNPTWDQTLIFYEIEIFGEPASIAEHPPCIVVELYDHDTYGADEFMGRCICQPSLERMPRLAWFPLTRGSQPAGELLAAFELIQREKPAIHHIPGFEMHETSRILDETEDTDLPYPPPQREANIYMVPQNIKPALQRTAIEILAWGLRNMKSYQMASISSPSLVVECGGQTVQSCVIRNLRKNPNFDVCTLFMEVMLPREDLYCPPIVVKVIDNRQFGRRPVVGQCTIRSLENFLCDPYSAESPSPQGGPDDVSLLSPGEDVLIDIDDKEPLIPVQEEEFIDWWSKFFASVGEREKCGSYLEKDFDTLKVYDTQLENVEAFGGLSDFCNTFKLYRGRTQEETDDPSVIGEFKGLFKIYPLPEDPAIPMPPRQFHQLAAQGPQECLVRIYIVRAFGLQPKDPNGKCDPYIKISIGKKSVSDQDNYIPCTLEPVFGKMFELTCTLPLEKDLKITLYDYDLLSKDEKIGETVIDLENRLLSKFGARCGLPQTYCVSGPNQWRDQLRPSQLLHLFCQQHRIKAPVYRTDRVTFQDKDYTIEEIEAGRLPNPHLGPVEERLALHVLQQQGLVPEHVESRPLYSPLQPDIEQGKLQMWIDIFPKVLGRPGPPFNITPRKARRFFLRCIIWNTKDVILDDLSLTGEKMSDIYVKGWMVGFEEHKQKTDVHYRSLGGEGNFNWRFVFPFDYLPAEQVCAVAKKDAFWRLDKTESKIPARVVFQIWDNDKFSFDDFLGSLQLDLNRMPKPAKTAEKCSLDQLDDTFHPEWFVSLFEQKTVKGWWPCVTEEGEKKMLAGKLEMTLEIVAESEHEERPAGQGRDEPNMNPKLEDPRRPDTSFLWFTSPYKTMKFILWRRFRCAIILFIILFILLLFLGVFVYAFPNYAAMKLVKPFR", "UniProt O75923": "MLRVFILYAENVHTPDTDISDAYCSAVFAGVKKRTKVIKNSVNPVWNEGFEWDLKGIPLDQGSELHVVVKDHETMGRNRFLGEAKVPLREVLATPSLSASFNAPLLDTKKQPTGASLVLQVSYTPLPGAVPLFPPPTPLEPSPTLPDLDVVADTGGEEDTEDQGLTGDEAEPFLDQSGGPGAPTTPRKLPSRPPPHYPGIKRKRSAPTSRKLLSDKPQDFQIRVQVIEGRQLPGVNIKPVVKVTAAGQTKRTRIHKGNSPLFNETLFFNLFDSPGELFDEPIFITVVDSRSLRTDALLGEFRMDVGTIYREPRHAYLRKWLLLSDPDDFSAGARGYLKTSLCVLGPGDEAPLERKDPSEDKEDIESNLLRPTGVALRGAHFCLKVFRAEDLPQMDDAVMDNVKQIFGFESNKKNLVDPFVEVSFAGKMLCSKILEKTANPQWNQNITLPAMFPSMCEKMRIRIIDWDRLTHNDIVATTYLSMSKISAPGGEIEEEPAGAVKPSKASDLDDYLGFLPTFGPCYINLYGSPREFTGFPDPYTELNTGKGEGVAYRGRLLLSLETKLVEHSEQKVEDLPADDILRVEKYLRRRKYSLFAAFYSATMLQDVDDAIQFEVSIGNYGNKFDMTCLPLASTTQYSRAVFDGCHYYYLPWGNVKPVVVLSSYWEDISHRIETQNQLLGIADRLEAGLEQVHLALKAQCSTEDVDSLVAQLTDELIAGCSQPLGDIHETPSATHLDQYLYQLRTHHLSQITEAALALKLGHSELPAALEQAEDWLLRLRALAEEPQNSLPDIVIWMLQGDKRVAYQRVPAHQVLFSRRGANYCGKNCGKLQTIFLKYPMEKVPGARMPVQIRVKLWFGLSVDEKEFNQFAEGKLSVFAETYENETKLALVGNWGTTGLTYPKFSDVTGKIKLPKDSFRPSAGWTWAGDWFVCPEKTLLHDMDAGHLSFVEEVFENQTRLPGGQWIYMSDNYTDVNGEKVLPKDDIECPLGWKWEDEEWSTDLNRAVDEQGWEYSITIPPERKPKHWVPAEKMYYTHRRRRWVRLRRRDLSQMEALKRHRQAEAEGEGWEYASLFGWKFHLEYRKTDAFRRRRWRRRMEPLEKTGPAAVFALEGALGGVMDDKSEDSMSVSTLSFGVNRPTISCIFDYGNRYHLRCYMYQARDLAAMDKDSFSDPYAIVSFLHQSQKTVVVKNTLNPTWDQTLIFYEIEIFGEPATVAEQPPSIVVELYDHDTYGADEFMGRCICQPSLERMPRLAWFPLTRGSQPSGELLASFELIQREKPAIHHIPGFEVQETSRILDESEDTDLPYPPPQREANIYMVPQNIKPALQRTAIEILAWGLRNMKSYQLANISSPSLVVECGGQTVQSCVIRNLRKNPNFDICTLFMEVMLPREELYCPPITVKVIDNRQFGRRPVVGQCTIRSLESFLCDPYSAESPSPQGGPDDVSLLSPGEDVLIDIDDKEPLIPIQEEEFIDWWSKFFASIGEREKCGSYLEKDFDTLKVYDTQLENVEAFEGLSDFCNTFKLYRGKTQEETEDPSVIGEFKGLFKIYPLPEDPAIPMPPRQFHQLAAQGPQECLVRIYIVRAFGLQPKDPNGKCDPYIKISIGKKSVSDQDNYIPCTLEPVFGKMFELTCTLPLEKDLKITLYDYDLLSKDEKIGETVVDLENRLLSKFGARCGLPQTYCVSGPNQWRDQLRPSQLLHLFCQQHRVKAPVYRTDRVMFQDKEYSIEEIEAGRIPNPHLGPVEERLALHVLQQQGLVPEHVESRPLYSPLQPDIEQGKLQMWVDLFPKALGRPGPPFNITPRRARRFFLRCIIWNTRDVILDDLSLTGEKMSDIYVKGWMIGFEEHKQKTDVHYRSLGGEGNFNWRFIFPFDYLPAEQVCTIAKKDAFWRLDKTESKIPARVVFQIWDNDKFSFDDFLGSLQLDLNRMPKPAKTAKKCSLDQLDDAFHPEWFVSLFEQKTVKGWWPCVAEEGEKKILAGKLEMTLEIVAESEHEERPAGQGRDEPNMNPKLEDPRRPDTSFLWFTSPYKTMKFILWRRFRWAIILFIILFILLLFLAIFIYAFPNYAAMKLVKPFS", "UniProt Q9NZM1": "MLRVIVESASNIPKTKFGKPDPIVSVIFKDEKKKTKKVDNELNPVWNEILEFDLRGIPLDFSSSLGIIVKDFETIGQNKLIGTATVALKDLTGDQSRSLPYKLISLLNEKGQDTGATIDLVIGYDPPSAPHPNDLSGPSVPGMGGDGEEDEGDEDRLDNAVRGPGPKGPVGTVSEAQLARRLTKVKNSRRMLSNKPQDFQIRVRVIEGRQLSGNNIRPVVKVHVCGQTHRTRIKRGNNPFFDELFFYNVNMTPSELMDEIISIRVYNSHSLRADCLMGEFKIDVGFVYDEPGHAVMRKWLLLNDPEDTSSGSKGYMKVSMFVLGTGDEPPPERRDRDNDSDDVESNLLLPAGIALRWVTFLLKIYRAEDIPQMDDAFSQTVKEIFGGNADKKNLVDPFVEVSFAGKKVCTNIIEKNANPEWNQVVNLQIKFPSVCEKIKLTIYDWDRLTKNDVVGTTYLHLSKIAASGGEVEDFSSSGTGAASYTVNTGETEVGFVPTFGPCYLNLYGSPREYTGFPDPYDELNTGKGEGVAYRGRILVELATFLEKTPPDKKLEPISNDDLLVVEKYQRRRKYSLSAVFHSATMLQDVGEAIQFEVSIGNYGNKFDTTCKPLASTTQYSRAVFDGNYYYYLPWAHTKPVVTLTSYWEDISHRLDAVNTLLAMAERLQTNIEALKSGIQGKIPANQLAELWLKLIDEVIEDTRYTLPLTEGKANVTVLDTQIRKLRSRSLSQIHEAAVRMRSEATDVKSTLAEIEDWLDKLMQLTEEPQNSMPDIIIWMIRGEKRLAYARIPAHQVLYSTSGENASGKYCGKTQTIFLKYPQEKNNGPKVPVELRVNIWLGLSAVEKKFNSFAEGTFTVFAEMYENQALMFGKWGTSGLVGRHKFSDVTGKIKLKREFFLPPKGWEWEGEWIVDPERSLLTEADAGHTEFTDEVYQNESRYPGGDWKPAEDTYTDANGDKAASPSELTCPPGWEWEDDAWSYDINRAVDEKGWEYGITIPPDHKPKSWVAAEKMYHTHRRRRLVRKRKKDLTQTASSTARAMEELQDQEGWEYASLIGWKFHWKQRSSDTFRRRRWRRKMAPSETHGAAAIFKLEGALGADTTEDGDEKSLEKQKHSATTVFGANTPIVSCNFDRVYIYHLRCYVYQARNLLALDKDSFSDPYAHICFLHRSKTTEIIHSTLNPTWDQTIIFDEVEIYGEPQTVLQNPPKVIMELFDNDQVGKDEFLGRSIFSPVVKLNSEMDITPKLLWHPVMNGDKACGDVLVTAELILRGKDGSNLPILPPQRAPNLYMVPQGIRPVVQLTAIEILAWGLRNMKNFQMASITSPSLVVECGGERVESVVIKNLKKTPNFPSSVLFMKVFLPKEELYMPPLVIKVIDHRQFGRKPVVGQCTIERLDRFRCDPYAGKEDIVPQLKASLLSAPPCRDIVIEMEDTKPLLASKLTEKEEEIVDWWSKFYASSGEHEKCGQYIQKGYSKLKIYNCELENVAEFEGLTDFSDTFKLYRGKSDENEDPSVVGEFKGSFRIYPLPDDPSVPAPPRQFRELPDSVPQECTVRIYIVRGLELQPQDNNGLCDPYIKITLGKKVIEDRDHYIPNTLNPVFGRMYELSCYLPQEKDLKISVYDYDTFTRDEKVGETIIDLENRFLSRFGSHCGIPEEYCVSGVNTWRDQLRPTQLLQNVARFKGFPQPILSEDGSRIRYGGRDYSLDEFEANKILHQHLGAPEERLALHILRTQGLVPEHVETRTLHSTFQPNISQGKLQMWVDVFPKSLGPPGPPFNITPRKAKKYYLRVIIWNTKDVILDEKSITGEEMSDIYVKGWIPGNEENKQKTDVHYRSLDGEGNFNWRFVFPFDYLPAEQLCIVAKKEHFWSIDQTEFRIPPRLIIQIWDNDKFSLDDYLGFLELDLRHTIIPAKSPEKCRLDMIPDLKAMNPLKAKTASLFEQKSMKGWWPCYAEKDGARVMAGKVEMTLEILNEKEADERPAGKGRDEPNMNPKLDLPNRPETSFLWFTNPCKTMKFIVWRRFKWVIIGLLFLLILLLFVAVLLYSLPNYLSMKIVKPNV", "UniProt P07356": "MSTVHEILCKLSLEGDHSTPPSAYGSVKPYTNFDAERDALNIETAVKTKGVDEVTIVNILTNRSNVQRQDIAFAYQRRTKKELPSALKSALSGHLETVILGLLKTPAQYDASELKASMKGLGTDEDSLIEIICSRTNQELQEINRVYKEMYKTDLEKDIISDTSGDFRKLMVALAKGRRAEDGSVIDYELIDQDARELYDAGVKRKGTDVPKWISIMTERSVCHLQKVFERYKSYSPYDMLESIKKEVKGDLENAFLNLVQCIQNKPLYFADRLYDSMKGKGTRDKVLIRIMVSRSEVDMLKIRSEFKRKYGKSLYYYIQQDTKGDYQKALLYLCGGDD"}, "source": "paper PMC2974636", "molecules": {"B1": {"name": "Calpain 3 (endogenous, mouse IM2 cells) (protein, UniProt Q64691 1-821)", "chain": "MPTVISPTVAPRTGAEPRSPGPVPHPAQGKTTEAGGGHPSGIYSAIISRNFPIIGVKEKTFEQLRRKCLEKKVLYLDPEFPPDETSLFYSQKFPIQFVWKRPPEICENPRFIIGGANRTDICQGDLGDCWFLAAIACLTLNERLLFRVIPHDQSFTENYAGIFHFQFWRYGDWVDVVIDDCLPTYNNQLVFTKSNHRNEFWSALLEKAYAKLHGSYEALKGGNTTEAMEDFTGGVTEFFEIKDAPSDMYKIMRKAIERGSLMGCSIDDGTNMTYGTSPSGLNMGELIARMVRNMDNSLLRDSDLDPRGSDDRPSRTIVPVQYETRMACGLVKGHAYSVTGLEEALFKGEKVKLVRLRNPWGQVEWNGSWSDGWKDWSFVDKDEKARLQHQVTEDGEFWMSYDDFVYHFTKLEICNLTADALESDKLQTWTVSVNEGRWVRGCSAGGCRNFPDTFWTNPQYRLKLLEEDDDPEDSEVICSFLVALMQKNRRKDRKLGANLFTIGFAIYEVPKEMHGNKQHLQKDFFLYNASKARSKTYINMREVSQRFRLPPSEYVIVPSTYEPHQEGEFILRVFSEKRNLSEEAENTISVDRPVKKKKNKPIIFVSDRANSNKELGVDQEAEEGKDKAGPEKRGETPQPRPGHTDQESEEQQQFRNIFRQIAGDDMEICADELKNVLNTVVNKHKDLKTQGFTLESCRSMIALMDTDGSGRLNLQEFHHLWKKIKAWQKIFKHYDTDHSGTINSYEMRNAVNDAGFHLNSQLYDIITMRYADKHMNIDFDSFICCFVRLEGMFRAFNAFDKDGDGIIKLNVLEWLQLTMYA"}, "B2": {"name": "Vinculin (endogenous, mouse IM2 cells) (protein, UniProt Q64727 1-1066)", "chain": "MPVFHTRTIESILEPVAQQISHLVIMHEEGEVDGKAIPDLTAPVAAVQAAVSNLVRVGKETVQTTEDQILKRDMPPAFIKVENACTKLVQAAQMLQSDPYSVPARDYLIDGSRGILSGTSDLLLTFDEAEVRKIIRVCKGILEYLTVAEVVETMEDLVTYTKNLGPGMTKMAKMIDERQQELTHQEHRVMLVNSMNTVKELLPVLISAMKIFVTTKNSKNQGIEEALKNRNFTVEKMSAEINEIIRVLQLTSWDEDAWASKDTEAMKRALASIDSKLNQAKGWLRDPNASPGDAGEQAIRQILDEAGKVGELCAGKERREILGTCKMLGQMTDQVADLRARGQGASPVAMQKAQQVSQGLDVLTAKVENAARKLEAMTNSKQSIAKKIDAAQNWLADPNGGPEGEEQIRGALAEARKIAELCDDPKERDDILRSLGEIAALTSKLGDLRRQGKGDSPEARALAKQVATALQNLQTKTNRAVANSRPAKAAVHLEGKIEQAQRWIDNPTVDDRGVGQAAIRGLVAEGHRLANVMMGPYRQDLLAKCDRVDQLTAQLADLAARGEGESPQARALASQLQDSLKDLKAQMQEAMTQEVSDVFSDTTTPIKLLAVAATAPPDAPNREEVFDERAANFENHSGRLGATAEKAAAVGTANKSTVEGIQASVKTARELTPQVISAARILLRNPGNQAAYEHFETMKNQWIDNVEKMTGLVDEAIDTKSLLDASEEAIKKDLDKCKVAMANIQPQMLVAGATSIARRANRILLVAKREVENSEDPKFREAVKAASDELSKTISPMVMDAKAVAGNISDPGLQKSFLDSGYRILGAVAKVREAFQPQEPDFPPPPPDLEQLRLTDELAPPKPPLPEGEVPPPRPPPPEEKDEEFPEQKAGEVINQPMMMAARQLHDEARKWSSKGNDIIAAAKRMALLMAEMSRLVRGGSGTKRALIQCAKDIAKASDEVTRLAKEVAKQCTDKRIRTNLLQVCERIPTISTQLKILSTVKATMLGRTNISDEESEQATEMLVHNAQNLMQSVKETVREAEAASIKIRTDAGFTLRWVRKTPWYQ"}, "B3": {"name": "Calpain 3 (endogenous; source of the IP samples not stated) (protein, UniProt Q64691 1-821)", "chain": "B1 chain"}, "B4": {"name": "PARVB (endogenous; source not stated) (protein, UniProt Q9ES46 1-365)", "chain": "MSSAPPRSPTPRAPKMKKDESFLGKLGGTLARKKKTREVTDLQEEGKSAINSPMAPALVDIHPEDTQLEENEERTMIDPTSREDPKFKELVKVLLDWINDVLAEERIIVKQLEEDLYDGQVLQKLLEKLAHCKLNVAEVTQSEIGQKQKLQTVLEAVQDLLRPHGWPLRWNVDSIHGKNLVAILHLLVSLAMHFRAPIHLPEHVTVQVVVVRKREGLLHSSHISEELTTTTEIMMGRFERDAFDTLFDHAPDKLNLVKKSLITFVNKHLNKLNLEVTDLETQFADGVYLVLLLGLLEDYFVPLHNFYLTPDSFDQKVHNVAFAFELMLDGGLKKPKARPEDVVNLDLKSTLRVLYTLFTKYKDVE"}}, "key": {"[1]": {"biological_target": "Dysferlin (endogenous; source of the IP not stated: IM2 myoblasts, IM2 myotubes or human skeletal muscle) (not stated (endogenous in mouse IM2 cells or human skeletal muscle)) (UniProt Q9ESD7)", "assay": "co-IP; dysferlin IP samples (HCAb) probed on western blot (Figure S2); source of the samples (IM2 myoblasts, IM2 myotubes or human skeletal muscle) not stated"}, "[2]": {"biological_target": "Recombinant dysferlin (transiently transfected in U2OS cells) (UniProt O75923)", "assay": "co-IP; U2OS cells (endogenous myoferlin) transiently transfected with dysferlin cDNA; IP with HCAb F4 and H7; IP and non-bound fractions on western blot for dysferlin and myoferlin; wild-type and mock cells as controls"}, "[3]": {"biological_target": "Dysferlin (endogenous, mouse IM2 myoblasts and myotubes) (mouse (endogenous in IM2)) (UniProt Q9ESD7)", "assay": "co-IP; endogenous dysferlin immunoprecipitated with HCAb F4 or H7 (control HCAb 3A) and protein A Sepharose from IM2 myoblast and myotube lysates (Triton, CHAPS or SDS buffer); western blot of the IP fractions"}, "[4]": {"biological_target": "T1, Vinculin (endogenous, mouse IM2 cells) (mouse (endogenous in IM2)) (UniProt Q64727)", "T1 sequence": "B2 chain", "assay": "co-IP; IM2 myotube lysate; IP with conventional antibodies against vinculin (IgG control against VSV); IP and non-bound fractions on western blot for dysferlin"}, "[5]": {"biological_target": "Dysferlin (endogenous; source of the IP not stated: IM2 myoblasts, IM2 myotubes or human skeletal muscle) (not stated (endogenous in mouse IM2 cells or human skeletal muscle)) (UniProt Q9ESD7)", "assay": "co-IP; data not shown; western blot of dysferlin HCAb IP fractions; source of the samples not stated"}, "[6]": {"biological_target": "Dysferlin (endogenous, mouse IM2 myoblasts and myotubes) (mouse (endogenous in IM2)) (UniProt Q9ESD7)", "assay": "co-IP; endogenous dysferlin immunoprecipitated with HCAb F4 or H7 (control HCAb 3A) and protein A Sepharose from IM2 myoblast and myotube lysates (Triton, CHAPS or SDS buffer); western blot of the IP fractions", "remark": "listed apart in the source"}}, "note": "Read-outs that look alike come from different tables or passages of the source. Results are given in words; binding and its absence hold for the method and conditions named. In cells and extracts the contact can be indirect. Some entries that bind do so weakly or less than the wild type.", "data": [{"molecule": "AHNAK (endogenous; source of the IP samples not stated) (from UniProt E9Q616 1-5656)", "values": [{"measurement": "binding", "setting": "[1]", "result": "binds"}]}, {"molecule": "Myoferlin (endogenous, U2OS cells) (from UniProt Q9NZM1 1-2061)", "values": [{"measurement": "binding", "setting": "[2]", "result": "binds weakly"}]}, {"molecule": "Myoferlin (endogenous, mouse IM2 cells) (from UniProt Q69ZN7 1-2048)", "values": [{"measurement": "binding", "setting": "[3]", "result": "binds"}]}, {"molecule": "Dysferlin (endogenous, mouse IM2 myoblasts and myotubes) (from UniProt Q9ESD7 1-2090)", "values": [{"measurement": "binding", "setting": "[4]", "result": "binds weakly"}]}, {"molecule": "ANXA2 (endogenous; source not stated) (from UniProt P07356 1-339)", "values": [{"measurement": "binding", "setting": "[5]", "result": "binds"}]}, {"molecule": "B1", "values": [{"measurement": "binding", "setting": "[6]", "result": "binds"}]}, {"molecule": "B2", "values": [{"measurement": "binding", "setting": "[6]", "result": "binds"}]}, {"molecule": "B3", "values": [{"measurement": "binding", "setting": "[1]", "result": "binds"}]}, {"molecule": "B4", "values": [{"measurement": "binding", "setting": "[5]", "result": "binds"}]}]}
